Values from PubChem BioAssay AID743121 (NCATS, 2013).
Shown is one part, drawn at random, of about 26,000 reagents tested. Over the whole deposit, 167 (0.63%) are marked active. 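Calls are per gene from RSA p-values that are not deposited; an individual active-marked siRNA can sensitise only weakly.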 Reagents against one gene are numbered here. Not all columns of the deposit are shown. No sequences are given here.

- Test: 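Knock-downs that sensitise breast cancer cells to camptothecin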 (primary screen)
- Cells: MDA-MB-231 cells, a human breast cancer line
- Reagent: single siRNA against human genes, 20 nM siRNA (0.8 pmol per well)
- Timing: 120 h (drug added 48 h after transfection, read 72 h later)
- Conditions: camptothecin 20 nM (about EC30) for 72 h; vehicle 0.1% DMSO in parallel plates
- Detection: 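Cell viability by ATP luminescence (CellTiter-Glo) as % of non-targeting siRNA wells, and the log2 ratio of viability without drug over viability with camptothecin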
- Scale: log2 vehicle/camptothecin viability: higher = stronger sensitisation to camptothecin
- Active means: 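Each gene scored by redundant siRNA activity (RSA) over its individual siRNA ratios; a gene is called active at p < 0.001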

gene | reagent | log2 vehicle/camptothecin viability | Outcome
CCM2L (CCM2 like scaffold protein) | 1 | -0.0544 | inactive
CCM2L (CCM2 like scaffold protein) | 2 | 0.163 | inactive
CCM2L (CCM2 like scaffold protein) | 3 | 0.273 | inactive
CCM2L (CCM2 like scaffold protein) | 4 | -0.361 | inactive
CAPN13 (calpain 13) | 1 | 0.163 | inactive
CAPN13 (calpain 13) | 2 | -0.49 | inactive
CAPN13 (calpain 13) | 3 | -0.171 | inactive
CAPN13 (calpain 13) | 4 | 0.0939 | inactive
LARS2 (leucyl-tRNA synthetase 2, mitochondrial) | 1 | -0.0772 | inactive
LARS2 (leucyl-tRNA synthetase 2, mitochondrial) | 2 | -0.576 | inactive
LARS2 (leucyl-tRNA synthetase 2, mitochondrial) | 3 | 0.892 | inactive
LARS2 (leucyl-tRNA synthetase 2, mitochondrial) | 4 | -0.0815 | inactive
GPX4 (glutathione peroxidase 4) | 1 | 1.25 | active
GPX4 (glutathione peroxidase 4) | 2 | 1.2 | active
GPX4 (glutathione peroxidase 4) | 3 | 1.48 | active
GPX4 (glutathione peroxidase 4) | 4 | -0.106 | active
IL1RAP (interleukin 1 receptor accessory protein) | 1 | -0.0093 | inactive
IL1RAP (interleukin 1 receptor accessory protein) | 2 | -0.436 | inactive
IL1RAP (interleukin 1 receptor accessory protein) | 3 | -0.273 | inactive
IL1RAP (interleukin 1 receptor accessory protein) | 4 | 0.00143 | inactive
TFR2 (transferrin receptor 2) | 1 | -0.42 | inactive
TFR2 (transferrin receptor 2) | 2 | -0.028 | inactive
TFR2 (transferrin receptor 2) | 3 | -0.14 | inactive
IRF2 (interferon regulatory factor 2) | 1 | -0.74 | inactive
IRF2 (interferon regulatory factor 2) | 2 | 0.0454 | inactive
IRF2 (interferon regulatory factor 2) | 3 | -0.139 | inactive
MVK (mevalonate kinase) | 1 | -0.285 | inactive
MVK (mevalonate kinase) | 2 | -0.408 | inactive
MVK (mevalonate kinase) | 3 | -0.582 | inactive
MVK (mevalonate kinase) | 4 | -0.523 | inactive
GABRB3 (gamma-aminobutyric acid type A receptor subunit beta3) | 1 | -0.475 | inactive
GABRB3 (gamma-aminobutyric acid type A receptor subunit beta3) | 2 | 0.139 | inactive
GABRB3 (gamma-aminobutyric acid type A receptor subunit beta3) | 3 | -0.487 | inactive
GABRB3 (gamma-aminobutyric acid type A receptor subunit beta3) | 4 | 0.139 | inactive
IL11RA (interleukin 11 receptor subunit alpha) | 1 | 0.119 | inactive
IL11RA (interleukin 11 receptor subunit alpha) | 2 | -0.362 | inactive
IL11RA (interleukin 11 receptor subunit alpha) | 3 | -0.392 | inactive
LPAL2 (lipoprotein(a) like 2 (pseudogene)) | 1 | -0.81 | inactive
LPAL2 (lipoprotein(a) like 2 (pseudogene)) | 2 | -0.0269 | inactive
LPAL2 (lipoprotein(a) like 2 (pseudogene)) | 3 | 0.417 | inactive
DVL3 (dishevelled segment polarity protein 3) | 1 | -0.289 | inactive
DVL3 (dishevelled segment polarity protein 3) | 2 | 0.392 | inactive
DVL3 (dishevelled segment polarity protein 3) | 3 | -0.0855 | inactive
DVL3 (dishevelled segment polarity protein 3) | 4 | 0.0685 | inactive
MAP4K3 (mitogen-activated protein kinase kinase kinase kinase 3) | 1 | -0.187 | inactive
MAP4K3 (mitogen-activated protein kinase kinase kinase kinase 3) | 2 | -0.0735 | inactive
MAP4K3 (mitogen-activated protein kinase kinase kinase kinase 3) | 3 | 0.156 | inactive
MAP4K3 (mitogen-activated protein kinase kinase kinase kinase 3) | 4 | -0.404 | inactive
RNF31 (ring finger protein 31) | 1 | 0.517 | active
RNF31 (ring finger protein 31) | 2 | 0.488 | active
RNF31 (ring finger protein 31) | 3 | 0.423 | active
RNF31 (ring finger protein 31) | 4 | 1.49 | active
ICE2 (interactor of little elongation complex ELL subunit 2) | 1 | -0.0427 | inactive
ICE2 (interactor of little elongation complex ELL subunit 2) | 2 | -0.101 | inactive
ICE2 (interactor of little elongation complex ELL subunit 2) | 3 | -0.48 | inactive
ICE2 (interactor of little elongation complex ELL subunit 2) | 4 | 0.127 | inactive
EDA2R (ectodysplasin A2 receptor) | 1 | 0.374 | inactive
EDA2R (ectodysplasin A2 receptor) | 2 | -0.178 | inactive
EDA2R (ectodysplasin A2 receptor) | 3 | 0.343 | inactive
EDA2R (ectodysplasin A2 receptor) | 4 | -0.139 | inactive
TREML4 (triggering receptor expressed on myeloid cells like 4) | 1 | -0.501 | inactive
TREML4 (triggering receptor expressed on myeloid cells like 4) | 2 | -0.705 | inactive
TREML4 (triggering receptor expressed on myeloid cells like 4) | 3 | -0.127 | inactive
TREML4 (triggering receptor expressed on myeloid cells like 4) | 4 | -0.642 | inactive
CREB1 (cAMP responsive element binding protein 1) | 1 | -0.0447 | inactive
CREB1 (cAMP responsive element binding protein 1) | 2 | -0.421 | inactive
CREB1 (cAMP responsive element binding protein 1) | 3 | -0.21 | inactive
ARIH1 (ariadne RBR E3 ubiquitin protein ligase 1) | 1 | 0.00679 | inactive
ARIH1 (ariadne RBR E3 ubiquitin protein ligase 1) | 2 | -0.171 | inactive
ARIH1 (ariadne RBR E3 ubiquitin protein ligase 1) | 3 | -0.432 | inactive
ARIH1 (ariadne RBR E3 ubiquitin protein ligase 1) | 4 | -0.308 | inactive

Records listed so far whose target name begins with D or d (4):
gene | reagent | log2 vehicle/camptothecin viability | Outcome
DVL3 (dishevelled segment polarity protein 3) | 1 | -0.289 | inactive
DVL3 (dishevelled segment polarity protein 3) | 2 | 0.392 | inactive
DVL3 (dishevelled segment polarity protein 3) | 3 | -0.0855 | inactive
DVL3 (dishevelled segment polarity protein 3) | 4 | 0.0685 | inactive
